Data from PubChem BioAssay AID186 (DTP/NCI, 2004).
Values are animals surviving of animals treated; these mice carried no tumour. Counts of survivors are from the toxicity check (mostly the fifth day) where no day follows; animals may have died later. Schedule codes are those of the source, taken here to give the interval after Q, in days (D) or hours (H), and the number of doses after X. Signs of the kind (2×) stand for listed records that agree. Some entries were tested several times; their values stand side by side, smallest first.

Test system: B6D2F1 mice, nontumored toxicity test, survival
Experiment: NCI In Vivo Anticancer Drug Screen. Data for tumor model Nontumored Animals (Toxicity Test) in B6D2F1 (BDF1) mice

O/N=c1/ccn(O)c2ccccc12
survivor count (dose: 0.25 mg/kg/injection, schedule: Q03HX024 (ip), vehicle: other): 6 of 6
survivor count (dose: 0.5 mg/kg/injection, schedule: Q03HX008 (ip), vehicle: other): 6 of 6
survivor count (dose: 0.5 mg/kg/injection, schedule: Q03HX016 (ip), vehicle: other): 6 of 6
survivor count (dose: 0.5 mg/kg/injection, schedule: Q03HX024 (ip), vehicle: other): 6 of 6
survivor count (dose: 1.0 mg/kg/injection, schedule: Q01DX005 (ip), vehicle: other): 6 of 6
survivor count (dose: 1.0 mg/kg/injection, schedule: Q01DX009 (ip), vehicle: other): 6 of 6
survivor count (dose: 1.0 mg/kg/injection, schedule: Q01DX009 (sc), vehicle: other): 6 of 6
survivor count (dose: 1.0 mg/kg/injection, schedule: Q03HX008 (ip), vehicle: other): 6 of 6
survivor count (dose: 1.0 mg/kg/injection, schedule: Q03HX016 (ip), vehicle: other): 6 of 6
survivor count (dose: 1.0 mg/kg/injection, schedule: Q03HX024 (ip), vehicle: other): 6 of 6
survivor count (dose: 2.0 mg/kg/injection, schedule: Q01DX005 (ip), vehicle: other): 6 of 6
survivor count (dose: 2.0 mg/kg/injection, schedule: Q01DX009 (ip), vehicle: other): 6 of 6
survivor count (dose: 2.0 mg/kg/injection, schedule: Q01DX009 (sc), vehicle: other): 6 of 6
survivor count (dose: 2.0 mg/kg/injection, schedule: Q03HX008 (ip), vehicle: other): 6 of 6
survivor count (dose: 2.0 mg/kg/injection, schedule: Q03HX016 (ip), vehicle: other): 6 of 6
survivor count (dose: 2.0 mg/kg/injection, schedule: Q03HX024 (ip), vehicle: other): 6 of 6
survivor count (dose: 2.0 mg/kg/injection, schedule: Q04DX003 (ip), vehicle: other): 6 of 6
survivor count (dose: 4.0 mg/kg/injection, schedule: Q01DX001 (ip), vehicle: other): 6 of 6
survivor count (dose: 4.0 mg/kg/injection, schedule: Q01DX001 (sc), vehicle: other): 6 of 6
survivor count (dose: 4.0 mg/kg/injection, schedule: Q01DX005 (ip), vehicle: other): 6 of 6
survivor count (dose: 4.0 mg/kg/injection, schedule: Q01DX009 (ip), vehicle: other): 6 of 6
survivor count (dose: 4.0 mg/kg/injection, schedule: Q01DX009 (oral), vehicle: other): 6 of 6
survivor count (dose: 4.0 mg/kg/injection, schedule: Q01DX009 (sc), vehicle: other): 6 of 6
survivor count (dose: 4.0 mg/kg/injection, schedule: Q03HX008 (ip), vehicle: other): 6 of 6
survivor count (dose: 4.0 mg/kg/injection, schedule: Q03HX016 (ip), vehicle: other): 6 of 6
survivor count (dose: 4.0 mg/kg/injection, schedule: Q03HX024 (ip), vehicle: other): 6 of 6
survivor count (dose: 4.0 mg/kg/injection, schedule: Q04DX003 (ip), vehicle: other): 6 of 6
survivor count (dose: 4.0 mg/kg/injection, schedule: Q08DX002 (ip), vehicle: other): 6 of 6
survivor count (dose: 8.0 mg/kg/injection, schedule: Q01DX001 (ip), vehicle: other): 6 of 6
survivor count (dose: 8.0 mg/kg/injection, schedule: Q01DX001 (oral), vehicle: other): 6 of 6
survivor count (dose: 8.0 mg/kg/injection, schedule: Q01DX001 (sc), vehicle: other): 6 of 6
survivor count (dose: 8.0 mg/kg/injection, schedule: Q01DX005 (ip), vehicle: other): 6 of 6
survivor count (dose: 8.0 mg/kg/injection, schedule: Q01DX009 (ip), vehicle: other): 6 of 6
survivor count (dose: 8.0 mg/kg/injection, schedule: Q01DX009 (oral), vehicle: other): 6 of 6
survivor count (dose: 8.0 mg/kg/injection, schedule: Q01DX009 (sc), vehicle: other): 6 of 6
survivor count (dose: 8.0 mg/kg/injection, schedule: Q03HX008 (ip), vehicle: other): 4 of 6
survivor count (dose: 8.0 mg/kg/injection, schedule: Q04DX003 (ip), vehicle: other): 6 of 6
survivor count (dose: 8.0 mg/kg/injection, schedule: Q08DX002 (ip), vehicle: other): 6 of 6
survivor count (dose: 16.0 mg/kg/injection, schedule: Q01DX001 (ip), vehicle: other): 6 of 6
survivor count (dose: 16.0 mg/kg/injection, schedule: Q01DX001 (oral), vehicle: other): 5 of 6
survivor count (dose: 16.0 mg/kg/injection, schedule: Q01DX001 (sc), vehicle: other): 6 of 6
survivor count (dose: 16.0 mg/kg/injection, schedule: Q01DX005 (ip), vehicle: other): 6 of 6
survivor count (dose: 16.0 mg/kg/injection, schedule: Q01DX009 (oral), vehicle: other): 6 of 6
survivor count (dose: 16.0 mg/kg/injection, schedule: Q04DX003 (ip), vehicle: other): 6 of 6
survivor count (dose: 16.0 mg/kg/injection, schedule: Q08DX002 (ip), vehicle: other): 6 of 6
survivor count (dose: 32.0 mg/kg/injection, schedule: Q01DX001 (ip), vehicle: other): 5 of 6
survivor count (dose: 32.0 mg/kg/injection, schedule: Q01DX001 (oral), vehicle: other): 6 of 6
survivor count (dose: 32.0 mg/kg/injection, schedule: Q01DX001 (sc), vehicle: other): 6 of 6
survivor count (dose: 32.0 mg/kg/injection, schedule: Q01DX009 (oral), vehicle: other): 6 of 6
survivor count (dose: 32.0 mg/kg/injection, schedule: Q04DX003 (ip), vehicle: other): 6 of 6
survivor count (dose: 32.0 mg/kg/injection, schedule: Q08DX002 (ip), vehicle: other): 6 of 6
survivor count (dose: 64.0 mg/kg/injection, schedule: Q01DX001 (ip), vehicle: other): 3 of 6
survivor count (dose: 64.0 mg/kg/injection, schedule: Q01DX001 (oral), vehicle: other): 6 of 6
survivor count (dose: 64.0 mg/kg/injection, schedule: Q01DX001 (sc), vehicle: other): 6 of 6
survivor count (dose: 128.0 mg/kg/injection, schedule: Q01DX001 (oral), vehicle: other): 6 of 6

CN(Cc1cnc2nc(N)nc(N)c2n1)c1ccc(C(=O)N[C@@H](CCC(=O)O)C(=O)O)cc1
survivor count (dose: 0.05 mg/kg/injection, schedule: Q06HX024 (ip), vehicle: saline): 8 of 8
survivor count (dose: 0.1 mg/kg/injection, schedule: Q06HX024 (ip), vehicle: saline): 8 of 8
survivor count (dose: 0.2 mg/kg/injection, schedule: Q06HX024 (ip), vehicle: saline): 8 of 8
survivor count (dose: 0.4 mg/kg/injection, schedule: Q06HX024 (ip), vehicle: saline): 8 of 8
survivor count (dose: 0.8 mg/kg/injection, schedule: Q06HX024 (ip), vehicle: saline): 6 of 8
survivor count (dose: 0.9 mg/kg/injection, schedule: Q01DX009 (ip), vehicle: sodium bicarbonate): 10 of 10
survivor count (dose: 1.3 mg/kg/injection, schedule: Q01DX009 (ip), vehicle: sodium bicarbonate): 10 of 10
survivor count (dose: 1.6 mg/kg/injection, schedule: Q06HX024 (ip), vehicle: saline): 5 of 8
survivor count (dose: 2.0 mg/kg/injection, schedule: Q01DX009 (ip), vehicle: sodium bicarbonate): 10 of 10
survivor count (dose: 3.0 mg/kg/injection, schedule: Q01DX009 (ip), vehicle: sodium bicarbonate): 9 of 10 and 10 of 10
survivor count (dose: 3.2 mg/kg/injection, schedule: Q06HX024 (ip), vehicle: saline): 6 of 8
survivor count (dose: 3.5 mg/kg/injection, schedule: Q01DX009 (ip), vehicle: sodium bicarbonate): 10 of 10 and 9 of 9
survivor count (dose: 9.41 mg/kg/injection, schedule: Q04DX003 (ip), vehicle: sodium bicarbonate): 10 of 10
survivor count (dose: 13.0 mg/kg/injection, schedule: Q04DX003 (ip), vehicle: sodium bicarbonate): 10 of 10
survivor count (dose: 13.4 mg/kg/injection, schedule: Q04DX003 (ip), vehicle: sodium bicarbonate): 10 of 10
survivor count (dose: 19.2 mg/kg/injection, schedule: Q04DX003 (ip), vehicle: sodium bicarbonate): 10 of 10
survivor count (dose: 20.0 mg/kg/injection, schedule: Q04DX003 (ip), vehicle: sodium bicarbonate): 10 of 10
survivor count (dose: 25.0 mg/kg/injection, schedule: Q04DX003 (ip), vehicle: sodium bicarbonate): 10 of 10
survivor count (dose: 27.4 mg/kg/injection, schedule: Q04DX003 (ip), vehicle: sodium bicarbonate): 10 of 10
survivor count (dose: 30.0 mg/kg/injection, schedule: Q04DX003 (ip), vehicle: sodium bicarbonate): 10 of 10 and 4 of 4
survivor count (dose: 35.0 mg/kg/injection, schedule: Q04DX003 (ip), vehicle: sodium bicarbonate): 10 of 10
survivor count (dose: 39.2 mg/kg/injection, schedule: Q04DX003 (ip), vehicle: sodium bicarbonate): 10 of 10
survivor count (dose: 40.0 mg/kg/injection, schedule: Q04DX003 (ip), vehicle: sodium bicarbonate): 10 of 10
survivor count (dose: 44.0 mg/kg/injection, schedule: Q04DX003 (ip), vehicle: sodium bicarbonate): 10 of 10
survivor count (dose: 56.0 mg/kg/injection, schedule: Q04DX003 (ip), vehicle: sodium bicarbonate): 10 of 10
survivor count (dose: 60.0 mg/kg/injection, schedule: Q04DX003 (ip), vehicle: sodium bicarbonate): 10 of 10
survivor count (dose: 66.0 mg/kg/injection, schedule: Q04DX003 (ip), vehicle: sodium bicarbonate): 10 of 10
survivor count (dose: 80.0 mg/kg/injection, schedule: Q04DX003 (ip), vehicle: sodium bicarbonate): 10 of 10 (2×)
survivor count (dose: 100.0 mg/kg/injection, schedule: Q04DX003 (ip), vehicle: sodium bicarbonate): 8 of 10 and 10 of 10
survivor count (dose: 114.0 mg/kg/injection, schedule: Q04DX003 (ip), vehicle: sodium bicarbonate): 8 of 10
survivor count (dose: 150.0 mg/kg/injection, schedule: Q04DX003 (ip), vehicle: sodium bicarbonate): 7 of 10 and 10 of 10
survivor count (dose: 200.0 mg/kg/injection, schedule: Q04DX003 (ip), vehicle: sodium bicarbonate): 10 of 10

S=P(N1CC1)(N1CC1)N1CC1
survivor count (dose: 7.5 mg/kg/injection, schedule: Q01DX001 (ip), vehicle: saline): 10 of 10
survivor count (dose: 11.0 mg/kg/injection, schedule: Q01DX001 (ip), vehicle: saline): 10 of 10
survivor count (dose: 17.0 mg/kg/injection, schedule: Q01DX001 (ip), vehicle: saline): 10 of 10

CN(C)CCN(Cc1ccccc1)c1ccccn1
survivor count (dose: 16.0 mg/kg/injection, schedule: Q01DX001 (sc), vehicle: saline): 6 of 6
survivor count (dose: 20.0 mg/kg/injection, schedule: Q01DX001 (sc), vehicle: saline): 6 of 6
survivor count (dose: 24.0 mg/kg/injection, schedule: Q01DX001 (sc), vehicle: saline): 6 of 6
survivor count (dose: 25.0 mg/kg/injection, schedule: Q01DX001 (ip), vehicle: saline): 8 of 8
survivor count (dose: 30.0 mg/kg/injection, schedule: Q01DX001 (sc), vehicle: saline): 6 of 6
survivor count (dose: 36.0 mg/kg/injection, schedule: Q01DX001 (ip), vehicle: saline): 8 of 8
